Test results: PubChem BioAssay AID330 (DTP/NCI, 2004)
The list is a part of this screen's results and no random one: it gathers tests that were run many times, whatever their T/C, doses with no T/C, and many T/C values between a quarter and a half above the control. Further doses and runs are listed elsewhere. T/C is the treated group as % of the vehicle group. Some entries give survivors of the animals treated and no T/C: the source files T/C as zero there, which appears to mark a toxic dose or a test without result, not a measured value. Some doses without a T/C left all or most animals alive at the check, yet need not have been tolerated: the source hardly ever lists a survival T/C far under the control, and the zero likely stands for such cases as well. Survivors were counted at the toxicity check, usually on the fifth day, unless a day is given; later deaths do not show. Schedule codes are those of the source, taken here to give the interval after Q, in days (D) or hours (H), and the number of doses after X. Some entries were tested several times; the values are given in rising order. For survival time, the PubChem record calls one and a half times the control and up active, and a quarter to a half above the control has no call in these data; cut-offs in other NCI protocols can differ. Some T/C values are followed by the survivors on the day toxicity was checked, most often the fifth; without a count, all were alive then.

System: P388 leukemia ip, CD2F1 mice, survival T/C
Test: NCI In Vivo Anticancer Drug Screen. Data for tumor model P388 Leukemia (intraperitoneal) in CD2F1 (CDF1) mice
Conditions: T/C endpoint: median survival time, higher T/C = longer survival
[1] = dose: 128.0 mg/kg/injection, schedule: Q01DX001 (ip), vehicle: saline

COc1cc([C@@H]2c3cc4c(cc3[C@@H](OC3OC5COC(C)OC5C(O)C3O)[C@H]3COC(=O)[C@H]23)OCO4)cc(OC)c1O (stereo partly drawn)
T/C (dose: 4.0 mg/kg/injection, schedule: Q01DX001 (ip), vehicle: water): 137 and 148 % of control
T/C (dose: 4.0 mg/kg/injection, schedule: Q01DX005 (ip), vehicle: saline): 185, 188, 192 [5 of 6 alive], 202 % of control
T/C (dose: 5.0 mg/kg/injection, schedule: Q04DX002 (ip), vehicle: suspension in saline): 139 % of control
T/C (dose: 5.0 mg/kg/injection, schedule: Q04DX003 (ip), vehicle: saline with Tween-80): 143 % of control
T/C (dose: 8.0 mg/kg/injection, schedule: Q01DX005 (ip), vehicle: saline): 221, 223, 237, 247 % of control
T/C (dose: 8.0 mg/kg/injection, schedule: Q04DX003 (ip), vehicle: saline, evaluated on day 9): 139 and 167 % of control
T/C (dose: 8.0 mg/kg/injection, schedule: Q04DX003 (ip), vehicle: saline, evaluated on day 10): 175 % of control
T/C (dose: 8.0 mg/kg/injection, schedule: Q04DX003 (ip), vehicle: saline, evaluated on day 30): 284 % of control
T/C (dose: 13.0 mg/kg/injection, schedule: Q04DX002 (ip), vehicle: water): 136 % of control
T/C (dose: 16.0 mg/kg/injection, schedule: Q01DX001 (ip), vehicle: saline with Tween-80): 109, 129, 141, 147, 183, 185, 203 % of control
T/C (dose: 16.0 mg/kg/injection, schedule: Q01DX001 (ip), vehicle: saline, evaluated on day 9): 112 [6 of 7 alive], 119, 123, 127, 129, 131, 145, 159, 182 % of control
T/C (dose: 16.0 mg/kg/injection, schedule: Q01DX001 (ip), vehicle: saline, evaluated on day 30): 228 % of control
T/C (dose: 16.0 mg/kg/injection, schedule: Q01DX001 (ip), vehicle: water): 134, 154, 183, 187, 199 % of control
T/C (dose: 16.0 mg/kg/injection, schedule: Q01DX005 (ip), vehicle: saline): 262, 265, 291, 319 % of control
survivor count (dose: 16.0 mg/kg/injection, schedule: Q01DX009 (ip), vehicle: saline): 10 of 10 and 6 of 6
T/C (dose: 16.0 mg/kg/injection, schedule: Q04DX003 (ip), vehicle: saline, evaluated on day 9): 190 and 199 % of control
T/C (dose: 16.0 mg/kg/injection, schedule: Q04DX003 (ip), vehicle: saline, evaluated on day 10): 192 % of control
T/C (dose: 16.0 mg/kg/injection, schedule: Q04DX003 (ip), vehicle: saline, evaluated on day 30): 284 % of control
T/C (dose: 18.0 mg/kg/injection, schedule: Q04DX003 (ip), vehicle: saline, evaluated on day 10): 144 % of control
T/C (dose: 18.0 mg/kg/injection, schedule: Q04DX003 (ip), vehicle: saline, evaluated on day 44): 243 % of control
T/C (dose: 18.0 mg/kg/injection, schedule: Q04DX003 (ip), vehicle: saline, evaluated on day 45): 214, 223, 232, 287 % of control
T/C (dose: 18.0 mg/kg/injection, schedule: Q04DX003 (ip), vehicle: saline, evaluated on day 47): 166, 245, 271, 405 % of control
T/C (dose: 18.0 mg/kg/injection, schedule: Q04DX003 (ip), vehicle: saline, evaluated on day 60): 255, 256, 257, 261, 296, 517 % of control
T/C (dose: 27.0 mg/kg/injection, schedule: Q04DX003 (ip), vehicle: saline, evaluated on day 10): 187 % of control
T/C (dose: 27.0 mg/kg/injection, schedule: Q04DX003 (ip), vehicle: saline, evaluated on day 44): 396 % of control
T/C (dose: 27.0 mg/kg/injection, schedule: Q04DX003 (ip), vehicle: saline, evaluated on day 45): 204, 225, 270, 343 % of control
T/C (dose: 27.0 mg/kg/injection, schedule: Q04DX003 (ip), vehicle: saline, evaluated on day 47): 175, 255, 274, 405 % of control [8 of 10 alive]
T/C (dose: 27.0 mg/kg/injection, schedule: Q04DX003 (ip), vehicle: saline, evaluated on day 60): 229, 289, 517, 530, 540 [9 of 10 alive], 549 % of control
T/C (dose: 32.0 mg/kg/injection, schedule: Q01DX001 (ip), vehicle: saline with Tween-80): 125, 127, 155, 165, 198, 221, 222 % of control
T/C (dose: 32.0 mg/kg/injection, schedule: Q01DX001 (ip), vehicle: saline, evaluated on day 9): 117 [2 of 5 alive], 118, 125, 126, 129, 144 [6 of 7 alive], 156, 159, 194 % of control [6 of 7 alive]
T/C (dose: 32.0 mg/kg/injection, schedule: Q01DX001 (ip), vehicle: saline, evaluated on day 30): 260 % of control
T/C (dose: 32.0 mg/kg/injection, schedule: Q01DX001 (ip), vehicle: water): 111, 173, 192, 196, 244 % of control
T/C (dose: 32.0 mg/kg/injection, schedule: Q01DX005 (ip), vehicle: saline): 89, 91, 116, 265 % of control
survivor count (dose: 32.0 mg/kg/injection, schedule: Q01DX009 (ip), vehicle: saline): 6 of 6
T/C (dose: 32.0 mg/kg/injection, schedule: Q04DX003 (ip), vehicle: saline, evaluated on day 9): 142 and 204 % of control
T/C (dose: 32.0 mg/kg/injection, schedule: Q04DX003 (ip), vehicle: saline, evaluated on day 10): 175 % of control
T/C (dose: 32.0 mg/kg/injection, schedule: Q04DX003 (ip), vehicle: saline, evaluated on day 30): 98 % of control
T/C (dose: 40.0 mg/kg/injection, schedule: Q04DX003 (ip), vehicle: saline, evaluated on day 10): 214 % of control
T/C (dose: 40.0 mg/kg/injection, schedule: Q04DX003 (ip), vehicle: saline, evaluated on day 44): 396 % of control
T/C (dose: 40.0 mg/kg/injection, schedule: Q04DX003 (ip), vehicle: saline, evaluated on day 45): 245 [9 of 10 alive], 362, 405, 441 % of control
T/C (dose: 40.0 mg/kg/injection, schedule: Q04DX003 (ip), vehicle: saline, evaluated on day 47): 182, 405 [8 of 10 alive], 412, 431 % of control
T/C (dose: 40.0 mg/kg/injection, schedule: Q04DX003 (ip), vehicle: saline, evaluated on day 60): 300, 324, 389, 517 [9 of 10 alive], 540, 555 % of control
survivor count (dose: 48.0 mg/kg/injection, schedule: Q04DX003 (ip), vehicle: clinical formulation): 7 of 8
T/C (dose: 48.0 mg/kg/injection, schedule: Q04DX003 (ip), vehicle: water): 126 % of control [7 of 8 alive]
T/C (dose: 50.0 mg/kg/injection, schedule: Q04DX003 (ip), vehicle: water): 130 and 134 % of control
T/C (dose: 60.0 mg/kg/injection, schedule: Q04DX002 (ip), vehicle: Klucel (hydroxypropylcellulose) (HPC)): 128 % of control [7 of 8 alive]
T/C (dose: 64.0 mg/kg/injection, schedule: Q01DX001 (ip), vehicle: saline with Tween-80): 123, 143, 196, 222, 252, 261, 287 % of control
T/C (dose: 64.0 mg/kg/injection, schedule: Q01DX001 (ip), vehicle: saline, evaluated on day 9): 114, 126, 136, 140, 149, 183, 203 [6 of 7 alive], 206 [6 of 7 alive], 215 % of control
T/C (dose: 64.0 mg/kg/injection, schedule: Q01DX001 (ip), vehicle: saline, evaluated on day 30): 274 % of control
T/C (dose: 64.0 mg/kg/injection, schedule: Q01DX001 (ip), vehicle: water): 124, 179, 227 [8 of 9 alive], 245, 278 % of control
T/C (dose: 64.0 mg/kg/injection, schedule: Q04DX003 (ip), vehicle: saline, evaluated on day 9): 109 [4 of 6 alive] and 293 % of control
T/C (dose: 64.0 mg/kg/injection, schedule: Q04DX003 (ip), vehicle: saline, evaluated on day 10): 90 % of control [2 of 3 alive]
survivor count (dose: 64.0 mg/kg/injection, schedule: Q04DX003 (ip), vehicle: saline): 6 of 6
survivor count (dose: 80.0 mg/kg/injection, schedule: Q04DX003 (ip), vehicle: clinical formulation): 6 of 8
T/C (dose: 96.0 mg/kg/injection, schedule: Q01DX001 (ip), vehicle: saline with Tween-80): 95, 118, 122, 214, 255, 342 % of control
T/C (dose: 96.0 mg/kg/injection, schedule: Q01DX001 (ip), vehicle: water): 141 % of control
T/C (dose: 128.0 mg/kg/injection, schedule: Q01DX001 (ip), vehicle: saline with Tween-80): 145 % of control
T/C [1]: 109, 119 [4 of 6 alive], 152, 164, 172, 181, 236, 277 % of control [6 of 7 alive]
survivor count [1]: 5 of 6
survivor count (dose: 128.0 mg/kg/injection, schedule: Q04DX003 (ip), vehicle: saline): 5 of 6
survivor count (dose: 500.0 mg/kg/injection, schedule: Q04DX003 (oral), vehicle: clinical formulation): 1 of 5
survivor count (dose: 1000.0 mg/kg/injection, schedule: Q04DX003 (oral), vehicle: clinical formulation): 0 of 5
survivor count (dose: 1500.0 mg/kg/injection, schedule: Q04DX003 (oral), vehicle: clinical formulation): 0 of 5
